This is an account of results in publication PMC6404581, “Staphylococcus aureus toxin LukSF dissociates from its membrane receptor target to enable renewed ligand sequestration” (The FASEB Journal, 2018).

Amino acid sequences for entries named in this document (tags omitted). Residues count along the entry.
UniProt P21730: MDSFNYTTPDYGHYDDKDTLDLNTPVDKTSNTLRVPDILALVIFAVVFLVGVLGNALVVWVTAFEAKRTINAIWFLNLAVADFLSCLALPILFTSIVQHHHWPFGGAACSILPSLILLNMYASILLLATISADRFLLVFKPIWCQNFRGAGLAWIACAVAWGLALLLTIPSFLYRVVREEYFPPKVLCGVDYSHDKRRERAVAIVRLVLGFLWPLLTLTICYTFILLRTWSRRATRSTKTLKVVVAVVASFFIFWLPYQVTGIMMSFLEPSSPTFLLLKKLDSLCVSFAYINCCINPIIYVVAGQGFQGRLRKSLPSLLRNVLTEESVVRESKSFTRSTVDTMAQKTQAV
UniProt P01031, residues 678-751: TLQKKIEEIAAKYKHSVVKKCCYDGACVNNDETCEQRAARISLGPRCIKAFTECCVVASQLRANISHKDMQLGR

Assay [1] deals with human C5a receptor, endogenous on human polymorphonuclear cells (human (endogenous in PMNs)) (UniProt P21730). Description: flow cytometry on cells; anti-CD88 rebinding on S(wt)-precoated human PMNs with increasing F(G130D) (Supplemental Fig. S9); only the binder purified. (In general: In flow cytometry, cells or beads pass a laser one at a time.)
Assay [2] has as its target human C5a receptor on hC5aR-expressing HEK cells (construct not named for these assays) (human) (UniProt P21730). Put plainly: flow cytometry on cells; only the binder purified.
The target is the same in assay [3]. Description: flow cytometry on cells; C5a rebinding: hC5aR-expressing HEK cells with 1 µM S(wt), 45 min at 4°C, washed, then 20 nM NT647-labeled C5a and increasing LukF (results: F(G130D)), 20 min at 37°C, 5% CO2; only the binder purified.
The target is the same in assay [4]. Put plainly: flow cytometry on cells; inhibition of PE-anti-CD88 binding: hC5aR-expressing HEK cells with increasing S(wt) or C5a, 45 min at 4°C, then anti-CD88; RPMI-HSA; only the binder purified.

Results are given in words; binding and its absence hold for the method and conditions named. Some results given as binding are weak or reduced against the parent protein; the word gives no strength.

On to “wild-type Staphylococcus aureus leukocidin S (from UniProt O80066 29-312)”, for which the binding entry in assay [1], in assay [2], in assay [3] and in assay [4] was “binds” each time.
In the case of “NT647-labeled C5a (from UniProt P01031 678-751) (ligand)”, the binding result in assay [3] is “binds”.
For “C5a anaphylatoxin (from UniProt P01031 678-751) (ligand)”, the binding entry in assay [4] is given as “binds”.
